Data published in PMC7140450.
No constants are given. Whether binding was seen depends on the method and setting. In cells and extracts the contact can be indirect. A yes stands for co-enrichment or nearness to the bait. Other partners may have been found.

Chains of the proteins cited; added tags and fusions are not shown.
UniProt P09936: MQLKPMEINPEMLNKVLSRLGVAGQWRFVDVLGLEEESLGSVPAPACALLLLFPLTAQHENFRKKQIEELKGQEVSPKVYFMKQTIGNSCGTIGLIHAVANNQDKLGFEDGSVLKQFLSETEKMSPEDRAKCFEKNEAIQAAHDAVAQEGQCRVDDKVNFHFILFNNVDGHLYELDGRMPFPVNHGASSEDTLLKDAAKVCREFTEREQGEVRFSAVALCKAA
UniProt Q14247: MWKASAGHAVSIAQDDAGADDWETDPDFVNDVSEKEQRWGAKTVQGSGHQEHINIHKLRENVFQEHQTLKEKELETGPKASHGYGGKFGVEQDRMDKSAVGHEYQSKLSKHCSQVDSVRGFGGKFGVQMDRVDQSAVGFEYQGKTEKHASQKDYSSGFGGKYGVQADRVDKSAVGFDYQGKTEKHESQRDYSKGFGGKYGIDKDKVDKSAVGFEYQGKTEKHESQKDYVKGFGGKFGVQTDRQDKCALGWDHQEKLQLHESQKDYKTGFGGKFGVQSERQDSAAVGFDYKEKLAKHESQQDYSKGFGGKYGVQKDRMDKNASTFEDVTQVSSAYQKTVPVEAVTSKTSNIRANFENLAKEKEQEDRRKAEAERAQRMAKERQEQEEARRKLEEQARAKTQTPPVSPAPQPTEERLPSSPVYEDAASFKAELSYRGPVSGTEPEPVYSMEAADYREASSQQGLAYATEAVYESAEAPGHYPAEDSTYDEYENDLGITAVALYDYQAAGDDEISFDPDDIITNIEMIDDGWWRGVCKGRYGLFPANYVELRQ

Biological target: FLAG-tagged UCHL1 (ubiquitin C-terminal hydrolase L1) (UniProt P09936)
Assay: affinity purification with mass spectrometry; lysate of SUNE1 cells stably transfected with FLAG-UCHL1; IP with anti-FLAG or IgG overnight at 4 °C, protein A/G Sepharose beads, SDS-PAGE, indicated bands analysed by mass spectrometry

Question: Which binding does the source give for “endogenous CTTN (cortactin) of SUNE1 cells (from UniProt Q14247 1-550)” here?
Answer: binds
